± gives the standard deviation of the averaged measurements. Most values lie at the floor of the assay. Slopes are relative: functional sequences can read slightly below zero.
Each substance was assayed on Saccharomyces cerevisiae PS128 hsf1 delta, HSF1(1-493) fusion (assay: growth estimate (transactivation domain function in HSF1 fusion, heat-shock survival) (a.u. (slope of normalised read count over time)); higher = stronger growth at 37°C, i.e. more transactivation activity). Details: library: random library.
For RRRAC, the growth estimate was < -0.25. In the case of PMAYRG, the growth estimate is reported as < -0.25. In the case of IKANRVVDSYRHVRRKASLQ, the growth estimate is reported as < -0.25. NGASVVLGLTASLGRRVP was tested, and the growth estimate was < -0.25. QRSVSLETRISCHPLRG was tested, and the growth estimate was < -0.25. In the case of IPTTEGLSTNMFLIFGDHVN, the growth estimate is reported as < -0.25. VRRPAH was tested, and the growth estimate was < -0.25. With QYKAYCFPQIKARFSISDVP the growth estimate was < -0.25. For CGI, the growth estimate was -0.219. With LGIFGGVNHVACVTNFI the growth estimate was < -0.25. For ARYIRLPSELLNRVPRHA, the growth estimate was < -0.25. IWSTINPVERYETESVEEA was tested, and the growth estimate was < -0.25. SGDKCA was tested, and the growth estimate was < -0.25. With SGGILMDRRAATCLQPPLIH the growth estimate was < -0.25. In the case of VSWRPGAQGHSK, the growth estimate is reported as < -0.25. With YVTRVSRLFKFFRQDC the growth estimate was < -0.25. In the case of LMRQDPVINGPGDRGRLRSA, the growth estimate is reported as -0.223. In the case of PRQ, the growth estimate is reported as -0.116. In the case of DRFYIASC, the growth estimate is reported as < -0.25. STFRRVSAYIMYRPRISVVG was tested, and the growth estimate was < -0.25. RSRGPEQSGFAVRIGPMRSG was tested, and the growth estimate was < -0.25. For RIRLMNGASYAS, the growth estimate was < -0.25. In the case of GDSVTRAVRPVKRPPSGRRP, the growth estimate is reported as < -0.25. For REGQVGRSESVIAQLR, the growth estimate was < -0.25. For WGTACTISRRQASPCRI, the growth estimate was < -0.25. With LGKPHVRQFLSGRLWKLILS the growth estimate was < -0.25. For GLEGNNHLR, the growth estimate was < -0.25. In the case of RCVCKPGLRCCLRVIVYTQT, the growth estimate is reported as < -0.25. With RDRFGTYIELVAALPHVWAL the growth estimate was < -0.25. In the case of FHNQYKLVV, the growth estimate is reported as < -0.25. For FPGLNLGHLIQSPLGVGN, the growth estimate was < -0.25. For IVVANR, the growth estimate was < -0.25. WVPLTPVDPIHTIDGLCR was tested, and the growth estimate was < -0.25. With GLCANLDDCVGAFVFWWR the growth estimate was < -0.25. KMVAWK was tested, and the growth estimate was < -0.25. With FPSRLFKCLSVPGFCRVAIT the growth estimate was < -0.25. Substance NIREWNPRSN has a growth estimate of -0.248. With RYRGCKGVNGALMGPWMSSS the growth estimate was -0.237. VIIWSCHSR was tested, and the growth estimate was -0.243. In the case of IAMQF, the growth estimate is reported as < -0.25. With NPDNSIGL the growth estimate was < -0.25. In the case of AGSDGFVRGNRKRFVTGGIC, the growth estimate is reported as < -0.25. With YSSLTIGYLALNFYCKTVCC the growth estimate was < -0.25. With WTR the growth estimate was < -0.25. In the case of VQAHNQNG, the growth estimate is reported as < -0.25. For VGTSSTARQNRQYDRGPVPS, the growth estimate was < -0.25. In the case of QGS, the growth estimate is reported as < -0.25. With TLTSALSMVLTLGGL the growth estimate was < -0.25. With KYYLADLR the growth estimate was < -0.25. With SLGWLRMQAKLLEEGVGARG the growth estimate was < -0.25. In the case of LIDVPIRCQYAHASRGLFCA, the growth estimate is reported as < -0.25. With VSPVPLRINCRVRSNHPRWE the growth estimate was < -0.25. In the case of RCLGVVSRLQL, the growth estimate is reported as < -0.25. For GFGTARTSA, the growth estimate was < -0.25. For LAQGDGGHSRRVRRQPAG, the growth estimate was < -0.25. In the case of VPNLVWSVTSMGQDGIVLAR, the growth estimate is reported as < -0.25. In the case of HDGGPHGSRILASLRMGFTE, the growth estimate is reported as < -0.25. Work on FEPDLWICPS yielded a growth estimate of -0.194. With RRGCSLLLALFSVVD the growth estimate was < -0.25. For GLQDWTGRPEPV, the growth estimate was < -0.25. VVNVTNRGRRSMYWSLVQES was tested, and the growth estimate was < -0.25. In the case of LLRVV, the growth estimate is reported as < -0.25. For NEGRRGSLAIGGSVSVLKQH, the growth estimate was < -0.25. With GLRFCLLCSKLSEEPPSFI the growth estimate was < -0.25. RLSKNRRRVFESWWSRTTAW was tested, and the growth estimate was < -0.25. For ARLSPPLPAG, the growth estimate was < -0.25. In the case of RSIKTRFF, the growth estimate is reported as < -0.25. For MPGNTSQECLAECSRVNDVR, the growth estimate was < -0.25. With CEAMLWTVSNHSIKGRIAVK the growth estimate was < -0.25. With GTLIRSQSTPGCALD the growth estimate was < -0.25. In the case of CAEGRWGVGWGGRRRLLHS, the growth estimate is reported as < -0.25. With DLQGYLGRYATRVNPNGALS the growth estimate was -0.243. For ETLTRGPGTKDKSWS, the growth estimate was < -0.25. With NVGQPGAAFSLGPYVRGTPT the growth estimate was < -0.25. With IRLGTPCEVCSVERGSQICP the growth estimate was < -0.25. With ATTCILEALSRRCAS the growth estimate was < -0.25. For VPTLDGDSRVRPGRVSLVGG, the growth estimate was < -0.25. In the case of DLDLGRHRIENIRSACFLWP, the growth estimate is reported as < -0.25. ILLHRVAECYTGS was tested, and the growth estimate was < -0.25. In the case of DIATALIGGMMRLSCHVSVN, the growth estimate is reported as < -0.25. With RAKLCSRDLHPTQDSWACRP the growth estimate was < -0.25. With WHYV the growth estimate was < -0.25. In the case of EQVLDALRVSAPASLIGITP, the growth estimate is reported as < -0.25. In the case of GHW, the growth estimate is reported as < -0.25. GNLYKQTVLSYYLCIGLIHP was tested, and the growth estimate was < -0.25. TCC was tested, and the growth estimate was < -0.25. In the case of PFGRLWR, the growth estimate is reported as < -0.25. GAMVPRSIEFLMNFGG gave a growth estimate of 0.0084. VDSLYPFCVRVELLRPISTP was tested, and the growth estimate was < -0.25. With CSDGSLTWTRKPAHGIFDRD the growth estimate was < -0.25. For IRVLGENGRSLFDDRPLRPY, the growth estimate was < -0.25. In the case of MPAGTLSLTLALKQPGLAWP, the growth estimate is reported as < -0.25. With GKDDWWPGP the growth estimate was < -0.25. VRVQG was tested, and the growth estimate was < -0.25. In the case of LCMVINVTQMGRQWEAVRAI, the growth estimate is reported as < -0.25. In the case of QHISQESGCWDINHRDLFYA, the growth estimate is reported as -0.121. CSS showed a growth estimate of -0.241 ± 0.012. With IASRQCKSTVPIITWTAPEC the growth estimate was < -0.25. With VGKPSTLLVP the growth estimate was < -0.25. In the case of FQLGTVTRGSDLIGGRRR, the growth estimate is reported as < -0.25. With CFVRQLEVRSFSAIHGAVR the growth estimate was < -0.25. FPRHLRTVGQSVNSTKWIGR was tested, and the growth estimate was < -0.25. In the case of HHTMGMSEGWGRFPSHHACH, the growth estimate is reported as < -0.25. PGEVAPLYQGRALRFVT was tested, and the growth estimate was < -0.25. In the case of LSYSAISTSPRGLRLSNARR, the growth estimate is reported as < -0.25. In the case of DLAARTLPLRLM, the growth estimate is reported as < -0.25. For RSDRVWVLENGDRATDGTRT, the growth estimate was < -0.25. With NSDNGEVESAWSS the growth estimate was < -0.25. For FSP, the growth estimate was < -0.25. With SQVPPKARTSEGRENSAWCA the growth estimate was < -0.25. For GVGVRMPKAAVDSGLGIDCS, the growth estimate was < -0.25. With VSSQKLDFWVGADRVASVEG the growth estimate was < -0.25. KTTKFPSKRRFGIRWQDGAV was tested, and the growth estimate was -0.246. In the case of SEIEKSSRSVCKIEALRFSD, the growth estimate is reported as < -0.25. With CAPAIF the growth estimate was < -0.25. TKGYPTLMKRMRIVAVVSHA was tested, and the growth estimate was < -0.25. With EGSRESMISPRLARIPRTYW the growth estimate was < -0.25. LYILNKGILGVSEASLSART was tested, and the growth estimate was -0.246. With MVIVLRSSRVTFFPCTAEKC the growth estimate was < -0.25. For HSTSALLYHTWSGAVGGCTP, the growth estimate was < -0.25. SSMLNVGGCSLHRYGRDFGD was tested, and the growth estimate was < -0.25. With FHDSPRPRSLDTETLPGGHV the growth estimate was < -0.25. RLLNRLLPL was tested, and the growth estimate was < -0.25. In the case of SRASTLENAIVGDSKVVSGH, the growth estimate is reported as < -0.25. For GAGLLRLLQLISRQGKVHAI, the growth estimate was < -0.25. VFGTLAQCRNFEKMWRFM was tested, and the growth estimate was < -0.25. With LGMGGNIGPRNRRRC the growth estimate was < -0.25. For EWIKHVGRPPEAVPTHGLPD, the growth estimate was < -0.25. With RVGSRHRPL the growth estimate was < -0.25. VGVDDEGLAVLHRFRYSYNS was tested, and the growth estimate was < -0.25. QSI was tested, and the growth estimate was < -0.25. TQWPRDNLR was tested, and the growth estimate was < -0.25. Substance ALEINVGSDK has a growth estimate of -0.246. CSSC was tested, and the growth estimate was < -0.25. GGTSNH was tested, and the growth estimate was < -0.25. For GGWWPRLLNNETRAFALRGS, the growth estimate was < -0.25. In the case of FLRFKSRHMDLIGRDRIGFL, the growth estimate is reported as -0.243. With HDTGEAI the growth estimate was -0.203. In the case of GMCWDCGTGLSASDRFSKRR, the growth estimate is reported as < -0.25. With RGVQPMGTDILLRCPLTFGR the growth estimate was < -0.25. In the case of LPIWLGSLTNRASLVLPRPA, the growth estimate is reported as < -0.25. For KFICAWNQSSAAPFLREGTP, the growth estimate was < -0.25. With LWG the growth estimate was < -0.25. With IGGIYPERLDDAIWQAQIAP the growth estimate was < -0.25. GCSTGLI showed a growth estimate of -0.248. In the case of WEVQRFAGVVDKGHMCPMSP, the growth estimate is reported as < -0.25. For RPSRMSLHLSPVAACHV, the growth estimate was < -0.25. SELPSKKIFPPATGGRHLCA was tested, and the growth estimate was < -0.25. SSDYHSLELGGSGVAAVI was tested, and the growth estimate was < -0.25. For HAEHQCEGRGPVTCMN, the growth estimate was < -0.25. With KGGVGVIDLSVGSLNRINIR the growth estimate was < -0.25. Work on MGCTMLGTRELYNSDRIPGL yielded a growth estimate of -0.243. MRWSRAQWRSLHQ was tested, and the growth estimate was < -0.25. With TVWNAVTSHA the growth estimate was < -0.25. With RSI the growth estimate was < -0.25. SQGHLD was tested, and the growth estimate was < -0.25.

Source: the supplement of paper PMC5949888
